Test results reported in patent publication US20240317816A1, “PEPTIDES FOR IMMUNOTHERAPY” (Genevive, Inc., priority 2021, published 2024).
These are yes or no findings as the source states them, for the method shown. Some binding calls cover weakened binding; strength is not graded here.

Protein sequences, listed by entry. Tags and fused reporters are not part of them.
UniProt P61073: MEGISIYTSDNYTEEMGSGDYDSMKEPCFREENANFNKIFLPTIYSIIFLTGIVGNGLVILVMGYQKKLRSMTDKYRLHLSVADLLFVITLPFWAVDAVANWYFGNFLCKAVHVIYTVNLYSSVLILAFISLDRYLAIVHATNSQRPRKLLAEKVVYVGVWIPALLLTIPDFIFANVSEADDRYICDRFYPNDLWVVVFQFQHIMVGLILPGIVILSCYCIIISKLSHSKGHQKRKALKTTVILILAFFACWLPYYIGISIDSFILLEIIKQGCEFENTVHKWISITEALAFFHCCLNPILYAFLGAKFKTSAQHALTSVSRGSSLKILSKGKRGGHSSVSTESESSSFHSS

Biological target: CXCR4 (Homo sapiens, UniProt P61073)
Assay: hit of DualSystems LRC-TriCEPS capture and SelectScreen reporter assay, confirmed in PathHunter beta-arrestin GPCR panel

B1: SG-3-00802 (peptide)
peptide: MKVRPSVKPMCEKCKIIRRKGRVMVICENPKHKQRQG
notes: also called PEP802
binding: binds
